Assay results from the supplement of paper PMC10849652.
Some of the results follow. Residues, ends and D or L forms follow the SMILES beside them. *: point of attachment. Cbz = O=C(OCc1ccccc1)*

Protein sequences, listed by entry. Tags and fused reporters are not part of them. Lines headed by an entry give the natural chain unless they say otherwise; changes in a name come on top.
UniProt Q8TCD1: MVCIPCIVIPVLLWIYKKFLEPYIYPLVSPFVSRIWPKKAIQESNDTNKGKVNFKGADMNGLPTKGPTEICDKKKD
UniProt Q96GQ5: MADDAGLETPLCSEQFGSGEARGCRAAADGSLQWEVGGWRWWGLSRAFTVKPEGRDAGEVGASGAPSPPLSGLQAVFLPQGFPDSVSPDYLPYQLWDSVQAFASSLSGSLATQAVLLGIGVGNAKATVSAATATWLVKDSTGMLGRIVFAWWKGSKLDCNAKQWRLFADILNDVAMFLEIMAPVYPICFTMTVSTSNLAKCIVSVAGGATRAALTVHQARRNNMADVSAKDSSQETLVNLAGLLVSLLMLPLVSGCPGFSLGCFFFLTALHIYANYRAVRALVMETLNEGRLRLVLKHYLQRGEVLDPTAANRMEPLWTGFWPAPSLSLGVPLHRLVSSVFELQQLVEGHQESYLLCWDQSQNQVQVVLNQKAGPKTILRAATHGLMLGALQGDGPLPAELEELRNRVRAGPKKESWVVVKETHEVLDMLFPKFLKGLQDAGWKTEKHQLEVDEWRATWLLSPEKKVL
UniProt Q96B23: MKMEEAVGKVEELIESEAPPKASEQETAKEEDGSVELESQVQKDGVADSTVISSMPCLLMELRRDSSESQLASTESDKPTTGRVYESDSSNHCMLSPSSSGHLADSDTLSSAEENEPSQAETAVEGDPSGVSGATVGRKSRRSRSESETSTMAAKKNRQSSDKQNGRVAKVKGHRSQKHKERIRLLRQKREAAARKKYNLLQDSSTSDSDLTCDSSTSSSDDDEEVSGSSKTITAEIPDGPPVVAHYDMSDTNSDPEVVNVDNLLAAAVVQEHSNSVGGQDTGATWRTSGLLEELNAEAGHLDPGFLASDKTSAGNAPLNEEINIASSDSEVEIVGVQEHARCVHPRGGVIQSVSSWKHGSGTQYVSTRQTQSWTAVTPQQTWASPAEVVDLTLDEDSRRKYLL
UniProt P27708: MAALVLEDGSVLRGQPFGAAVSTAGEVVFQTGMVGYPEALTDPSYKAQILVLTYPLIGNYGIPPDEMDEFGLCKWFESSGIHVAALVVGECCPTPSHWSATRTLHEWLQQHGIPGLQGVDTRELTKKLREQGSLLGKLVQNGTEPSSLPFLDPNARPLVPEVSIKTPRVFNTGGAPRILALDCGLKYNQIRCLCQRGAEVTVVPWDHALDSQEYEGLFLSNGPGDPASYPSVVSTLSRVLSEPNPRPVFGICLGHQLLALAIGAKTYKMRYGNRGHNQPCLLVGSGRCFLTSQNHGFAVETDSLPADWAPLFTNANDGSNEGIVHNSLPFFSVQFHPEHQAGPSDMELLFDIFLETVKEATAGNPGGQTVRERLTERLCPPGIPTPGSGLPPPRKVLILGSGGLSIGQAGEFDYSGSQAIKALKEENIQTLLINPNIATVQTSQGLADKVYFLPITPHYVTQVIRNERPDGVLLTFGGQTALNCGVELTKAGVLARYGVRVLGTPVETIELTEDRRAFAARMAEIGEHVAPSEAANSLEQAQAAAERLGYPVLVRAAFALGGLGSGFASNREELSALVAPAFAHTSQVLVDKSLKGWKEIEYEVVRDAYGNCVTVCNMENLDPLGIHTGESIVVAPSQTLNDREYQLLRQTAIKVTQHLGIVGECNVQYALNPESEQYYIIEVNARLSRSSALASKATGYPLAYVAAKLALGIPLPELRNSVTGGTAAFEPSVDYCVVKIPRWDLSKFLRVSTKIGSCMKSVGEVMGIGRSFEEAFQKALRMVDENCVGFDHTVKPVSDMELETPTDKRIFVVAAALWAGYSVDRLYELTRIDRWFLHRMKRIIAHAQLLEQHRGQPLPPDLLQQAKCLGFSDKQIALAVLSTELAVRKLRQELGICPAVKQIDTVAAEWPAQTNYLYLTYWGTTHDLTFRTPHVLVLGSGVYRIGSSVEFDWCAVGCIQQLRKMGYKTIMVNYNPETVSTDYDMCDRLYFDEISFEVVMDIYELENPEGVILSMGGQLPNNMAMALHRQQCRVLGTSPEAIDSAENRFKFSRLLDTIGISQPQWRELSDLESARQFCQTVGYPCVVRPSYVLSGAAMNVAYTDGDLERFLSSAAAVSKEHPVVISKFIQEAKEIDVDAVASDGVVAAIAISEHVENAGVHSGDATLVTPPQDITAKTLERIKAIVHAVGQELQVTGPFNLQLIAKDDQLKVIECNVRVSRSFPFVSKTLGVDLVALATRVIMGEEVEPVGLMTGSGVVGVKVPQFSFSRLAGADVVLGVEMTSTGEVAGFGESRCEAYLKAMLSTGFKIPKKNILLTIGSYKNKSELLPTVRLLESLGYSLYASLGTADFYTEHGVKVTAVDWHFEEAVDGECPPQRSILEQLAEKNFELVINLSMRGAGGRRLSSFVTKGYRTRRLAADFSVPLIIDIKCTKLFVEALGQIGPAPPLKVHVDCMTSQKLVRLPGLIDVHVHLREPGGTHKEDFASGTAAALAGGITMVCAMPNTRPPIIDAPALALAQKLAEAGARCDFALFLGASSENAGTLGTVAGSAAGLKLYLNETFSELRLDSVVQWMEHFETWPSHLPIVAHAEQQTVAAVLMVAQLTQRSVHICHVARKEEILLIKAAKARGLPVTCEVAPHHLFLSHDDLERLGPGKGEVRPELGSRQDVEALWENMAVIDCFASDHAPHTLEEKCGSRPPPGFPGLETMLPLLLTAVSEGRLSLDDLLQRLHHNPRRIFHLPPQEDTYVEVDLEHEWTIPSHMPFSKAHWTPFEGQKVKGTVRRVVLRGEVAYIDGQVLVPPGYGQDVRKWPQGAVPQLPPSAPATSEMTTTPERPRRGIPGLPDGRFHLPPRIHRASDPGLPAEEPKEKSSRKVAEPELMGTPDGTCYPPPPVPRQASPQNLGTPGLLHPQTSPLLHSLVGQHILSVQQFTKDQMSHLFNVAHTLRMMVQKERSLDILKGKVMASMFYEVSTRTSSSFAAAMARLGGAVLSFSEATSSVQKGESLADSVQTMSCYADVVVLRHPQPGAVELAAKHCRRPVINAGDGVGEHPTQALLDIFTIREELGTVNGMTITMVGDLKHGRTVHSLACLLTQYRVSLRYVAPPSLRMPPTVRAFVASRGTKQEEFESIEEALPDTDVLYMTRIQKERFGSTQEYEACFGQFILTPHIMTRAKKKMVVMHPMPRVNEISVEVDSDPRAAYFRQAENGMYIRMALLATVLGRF
UniProt Q96LT7: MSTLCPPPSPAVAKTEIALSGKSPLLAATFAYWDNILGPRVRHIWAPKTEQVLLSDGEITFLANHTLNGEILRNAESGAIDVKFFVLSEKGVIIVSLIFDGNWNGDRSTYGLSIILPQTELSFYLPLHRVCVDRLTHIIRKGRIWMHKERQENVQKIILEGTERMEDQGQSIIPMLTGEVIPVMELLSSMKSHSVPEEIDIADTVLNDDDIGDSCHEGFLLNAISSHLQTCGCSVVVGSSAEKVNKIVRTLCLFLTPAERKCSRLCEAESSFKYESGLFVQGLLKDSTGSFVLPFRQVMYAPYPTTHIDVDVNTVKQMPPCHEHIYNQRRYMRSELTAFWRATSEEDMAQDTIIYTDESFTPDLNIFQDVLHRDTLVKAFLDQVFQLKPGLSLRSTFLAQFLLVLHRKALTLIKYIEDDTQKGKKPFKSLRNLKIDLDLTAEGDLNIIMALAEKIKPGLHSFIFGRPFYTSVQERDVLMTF
UniProt O14981: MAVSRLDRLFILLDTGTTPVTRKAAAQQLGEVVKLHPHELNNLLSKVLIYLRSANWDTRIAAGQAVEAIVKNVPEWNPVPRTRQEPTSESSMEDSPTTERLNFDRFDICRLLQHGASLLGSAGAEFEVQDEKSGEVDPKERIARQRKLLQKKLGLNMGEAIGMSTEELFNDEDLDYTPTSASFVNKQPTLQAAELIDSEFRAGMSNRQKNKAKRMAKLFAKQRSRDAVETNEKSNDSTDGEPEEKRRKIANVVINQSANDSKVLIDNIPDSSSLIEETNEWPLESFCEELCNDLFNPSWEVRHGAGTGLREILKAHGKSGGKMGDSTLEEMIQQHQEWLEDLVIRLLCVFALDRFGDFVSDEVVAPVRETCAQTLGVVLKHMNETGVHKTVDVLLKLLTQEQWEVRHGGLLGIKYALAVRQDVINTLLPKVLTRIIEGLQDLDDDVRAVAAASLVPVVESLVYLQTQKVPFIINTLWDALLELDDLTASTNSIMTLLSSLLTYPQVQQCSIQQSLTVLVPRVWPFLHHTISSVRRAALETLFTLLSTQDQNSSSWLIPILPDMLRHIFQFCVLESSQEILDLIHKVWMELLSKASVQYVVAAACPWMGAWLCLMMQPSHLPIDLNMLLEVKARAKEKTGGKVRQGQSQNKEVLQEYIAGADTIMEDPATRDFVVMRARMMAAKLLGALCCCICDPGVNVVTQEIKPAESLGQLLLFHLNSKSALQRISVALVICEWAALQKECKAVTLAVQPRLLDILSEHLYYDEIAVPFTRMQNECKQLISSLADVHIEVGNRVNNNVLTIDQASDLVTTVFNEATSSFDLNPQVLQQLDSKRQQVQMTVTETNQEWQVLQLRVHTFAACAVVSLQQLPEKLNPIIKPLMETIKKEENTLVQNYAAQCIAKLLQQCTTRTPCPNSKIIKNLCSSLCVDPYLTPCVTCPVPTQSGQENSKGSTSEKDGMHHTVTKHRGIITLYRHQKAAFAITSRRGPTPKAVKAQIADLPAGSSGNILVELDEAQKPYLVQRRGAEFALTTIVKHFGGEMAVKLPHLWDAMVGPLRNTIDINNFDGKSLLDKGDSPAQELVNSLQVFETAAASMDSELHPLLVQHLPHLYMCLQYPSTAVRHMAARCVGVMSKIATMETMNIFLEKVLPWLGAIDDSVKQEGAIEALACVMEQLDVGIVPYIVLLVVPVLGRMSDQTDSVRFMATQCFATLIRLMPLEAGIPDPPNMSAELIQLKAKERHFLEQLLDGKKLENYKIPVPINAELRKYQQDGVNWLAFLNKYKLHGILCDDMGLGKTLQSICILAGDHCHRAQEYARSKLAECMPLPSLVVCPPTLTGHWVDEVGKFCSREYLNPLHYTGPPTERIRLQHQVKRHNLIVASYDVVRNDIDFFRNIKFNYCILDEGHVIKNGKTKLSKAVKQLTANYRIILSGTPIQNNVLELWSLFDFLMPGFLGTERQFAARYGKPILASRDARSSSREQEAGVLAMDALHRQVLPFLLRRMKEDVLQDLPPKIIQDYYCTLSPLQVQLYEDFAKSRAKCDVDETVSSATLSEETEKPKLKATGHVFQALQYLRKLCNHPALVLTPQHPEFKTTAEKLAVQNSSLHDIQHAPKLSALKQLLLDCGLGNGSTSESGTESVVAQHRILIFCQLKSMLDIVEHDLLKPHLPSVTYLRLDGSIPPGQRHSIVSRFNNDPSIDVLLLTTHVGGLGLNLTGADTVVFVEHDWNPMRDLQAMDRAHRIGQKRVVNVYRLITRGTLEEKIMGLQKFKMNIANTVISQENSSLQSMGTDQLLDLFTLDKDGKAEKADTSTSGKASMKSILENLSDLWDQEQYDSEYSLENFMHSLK
UniProt P0DMB2: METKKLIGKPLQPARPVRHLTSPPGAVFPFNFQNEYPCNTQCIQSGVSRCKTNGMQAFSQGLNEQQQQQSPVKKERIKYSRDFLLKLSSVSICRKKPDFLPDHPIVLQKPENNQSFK
UniProt P00915: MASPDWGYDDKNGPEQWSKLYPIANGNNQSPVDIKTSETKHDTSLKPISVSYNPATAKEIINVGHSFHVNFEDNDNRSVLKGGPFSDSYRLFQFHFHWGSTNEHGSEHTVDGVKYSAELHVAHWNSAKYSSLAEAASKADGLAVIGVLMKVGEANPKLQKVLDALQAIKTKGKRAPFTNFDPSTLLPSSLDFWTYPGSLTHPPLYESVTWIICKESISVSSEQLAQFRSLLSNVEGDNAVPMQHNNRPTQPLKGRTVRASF

How the values were obtained:
Test in all cases: log2 fold change, soluble protein after heating vs DMSO (PISA); higher = thermal stabilisation; K562 cells, 10 uM, 30 min; active = over 0.2 and 3.5 SD of the protein, either way, in both replicates (recomputed)
erlotinib = compound: C#Cc1cccc(Nc2ncnc3cc(OCCOC)c(OCCOC)cc23)c1 [erlotinib]
In short: (§1)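 Aliquots of K562 cells (2×10^6 cells/mL) treated with 10 μM compound for 30 min were heated for 3 min over 48°C-58°C. After pooling and extraction in PBS with 0.5% NP-40 at 4°C, soluble protein from a 21,000xg, 90 min spin was quantified by TMTpro 16plex LC-MS/MS with channel sums equalised. Thermal stability is expressed against control samples, from duplicates, as a log2 fold change.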

[1] = compound: C/C(=N\NC(=O)C1=CC(=CC=C1)S(=O)(=O)N2CCOCC2)/C3=C(C=CC(=C3)Cl)O
In short: as §1

[2] = compound: C1=CC(=C(C=C1Cl)C2=NC3=NC=CN=C3C(=N2)NC4=CC=NC=C4)F
In short: as §1

[3] = compound: C1=CC(=CC=C1C2=NC3=C(N2)C=C(C=C3)C(=O)N)OC4=CC=C(C=C4)Cl
In short: as §1

[4] = compound: C1=CC2=C(C=CC(=C2)/C=C\3/C(=O)NC(=NCC4=CC=CS4)S3)N=C1
In short: as §1

[5] = compound: C1=CC2=NC=CN=C2C=C1/C=C/3\C(=O)NC(=O)S3
In short: as §1

[6] = compound: C1=CC=C(C=C1)C2=NC(=C(N2)C3=CC=NC=C3)C4=CC(=C(C=C4)Cl)O
In short: as §1

[7] = compound: C1=CC=C2C(=C1)C3=NNC4=CC=CC(=C43)C2=O
In short: as §1

[8] = compound: C1CCN(C1)C(=O)NC2=CC=CC(=C2)NC3=NC=C(C(=N3)NCCC4=CN=CN4)Br
In short: as §1

[9] = compound: C1CN(CCC1(CC2=CC=C(C=C2)Cl)N)C3=NC=NC4=C3C=CN4
In short: as §1

ibrutinib = compound: C=CC(=O)N1CCC[C@@H](n2nc(-c3ccc(Oc4ccccc4)cc3)c3c(N)ncnc32)C1 [ibrutinib]
In short: as §1

[10] = compound: CC(=O)c1cnc2ccc(-c3cc(Cl)c(O)c(Cl)c3)nc2c1N[C@H]1CC[C@H](CN(C)C)CC1
In short: as §1

ralimetinib = compound: CC(C)(C)Cn1c(N)nc2ccc(-c3[nH]c(C(C)(C)C)nc3-c3ccc(F)cc3)nc21 [ralimetinib]
In short: as §1

[11] = compound: CC(C)(O)CC(=O)NCCn1ccc2ncnc(Nc3ccc(Oc4cccc(C(F)(F)F)c4)c(Cl)c3)c21
In short: as §1

[12] = compound: CC(C)C1=C2N=C(C=C(N2N=C1)NCC3=CC=CC=C3)NCCCCCCN
In short: as §1

[13] = compound: CC(C)C[C@@H](C=O)NC(=O)[C@H](CC(C)C)NC(=O)[C@H](CC(C)C)NC(=O)OCc1ccccc1
In short: as §1

[14] = compound: CC1=C(C(CC(=O)N1)C2=CC=C(C=C2)C(F)(F)F)C(=O)NC3=C(C=C4C(=C3)C=NN4)F
In short: as §1

[15] = compound: CC1=C(C2=C(C=C1)C(=O)C3=CC=CC=C3N2CCCN)C
In short: as §1

IRAK-1-4 Inhibitor I = compound: C1COCCN1CCN2C3=CC=CC=C3N=C2NC(=O)C4=CC(=CC=C4)[N+](=O)[O-] [IRAK-1-4 Inhibitor I]
In short: as §1

pinometostat = compound: CC(C)N(C[C@H]1O[C@@H](n2cnc3c(N)ncnc32)[C@H](O)[C@@H]1O)[C@H]1C[C@@H](CCc2nc3cc(C(C)(C)C)ccc3[nH]2)C1 [pinometostat]
In short: as §1

| Target | log2 fold change (erlotinib) | log2 fold change [1] | log2 fold change [2] | log2 fold change [3] | log2 fold change [4] | log2 fold change [5] | log2 fold change [6] | log2 fold change [7] | log2 fold change [8] | log2 fold change [9] | log2 fold change (ibrutinib) | log2 fold change [10] | log2 fold change (ralimetinib) | log2 fold change [11] | log2 fold change [12] | log2 fold change [13] | log2 fold change [14] | log2 fold change [15] | log2 fold change (IRAK-1-4 Inhibitor I) | log2 fold change (pinometostat) |
| --- | --- | --- | --- | --- | --- | --- | --- | --- | --- | --- | --- | --- | --- | --- | --- | --- | --- | --- | --- | --- |
| C18orf32 (UniProt Q8TCD1) | inactive: -0.019 | inactive: -0.035 | inactive: 0.194 | inactive: -0.014 | inactive: 0.09 | inactive: 0.099 | inactive: 0.001 | inactive: 0.111 | inactive: -0.062 | inactive: -0.044 | inactive: -0.01 | inactive: -0.041 | inactive: -0.194 | inactive: 0.165 | inactive: 0.071 | inactive: -0.132 | inactive: 0.018 | inactive: 0.151 | – | – |
| C16orf58 (UniProt Q96GQ5) | inactive: 0.033 | inactive: 0.01 | inactive: 0.051 | inactive: 0.023 | inactive: 0.061 | inactive: 0.042 | inactive: -0.001 | inactive: -0.021 | inactive: 0.006 | inactive: 0.036 | inactive: -0.022 | inactive: 0.01 | inactive: -0.017 | inactive: -0.045 | inactive: -0.199 | inactive: 0.001 | – | inactive: 0.045 | inactive: 0.031 | inactive: 0.005 |
| C18orf25 isoform 2 (UniProt Q96B23) | inactive: 0.009 | inactive: -0.081 | inactive: 0.018 | inactive: -0.154 | inactive: 0.021 | inactive: -0.008 | – | inactive: 0.012 | inactive: 0.097 | inactive: 0.115 | inactive: -0.043 | inactive: -0.008 | – | inactive: 0.048 | inactive: 0.061 | – | inactive: -0.014 | inactive: -0.202 | inactive: 0.027 | inactive: -0.06 |
| CAD (UniProt P27708) | inactive: -0.083 | inactive: 0.042 | inactive: -0.014 | inactive: -0.003 | inactive: 0.125 | inactive: -0.011 | inactive: 0.057 | inactive: -0.063 | inactive: 0.013 | inactive: 0.046 | inactive: 0.008 | active: -0.402 | inactive: -0.06 | inactive: -0.168 | inactive: 0.029 | inactive: 0.021 | – | active: 0.272 | inactive: -0.064 | inactive: 0.028 |
| C19orf53 (UniProt Q9UNZ5) | inactive: -0.161 | inactive: -0.216 | inactive: -0.52 | inactive: 0.079 | inactive: -0.129 | inactive: -0.011 | inactive: -0.024 | inactive: -0.028 | inactive: 0.053 | inactive: -0.176 | inactive: 0.031 | inactive: 0.12 | inactive: 0.201 | inactive: 0.043 | inactive: 0.013 | inactive: 0.126 | – | inactive: -0.546 | inactive: -0.136 | inactive: 0.32 |
| C9orf72 (UniProt Q96LT7) | inactive: 0.095 | inactive: 0.021 | inactive: 0.02 | inactive: -0.012 | inactive: -0.068 | inactive: -0.068 | inactive: -0.086 | inactive: -0.057 | inactive: -0.205 | inactive: 0.211 | inactive: 0.022 | inactive: -0.001 | inactive: 0.035 | inactive: -0.051 | inactive: 0.029 | inactive: -0.019 | – | inactive: 0.048 | inactive: 0.016 | inactive: 0.135 |
| BTAF1 (UniProt O14981) | inactive: 0.04 | inactive: 0.078 | inactive: 0.072 | inactive: 0.005 | inactive: 0.048 | inactive: -0.006 | inactive: -0.038 | inactive: -0.032 | inactive: 0.011 | inactive: 0.05 | inactive: 0.029 | inactive: 0.022 | inactive: -0.043 | inactive: -0.168 | inactive: -0.131 | inactive: 0.01 | – | inactive: -0.087 | inactive: 0.021 | inactive: -0.011 |
| C8orf88 (UniProt P0DMB2) | inactive: -0.035 | inactive: -0.171 | inactive: -0.017 | inactive: -0.067 | inactive: 0.269 | inactive: 0.06 | inactive: 0.107 | inactive: -0.287 | – | – | inactive: -0.063 | inactive: -0.567 | inactive: 0.189 | inactive: -0.031 | inactive: 0.026 | inactive: -0.178 | – | – | inactive: 0.051 | inactive: 0.116 |
| CA1 (UniProt P00915) | inactive: -0.025 | inactive: 0.022 | inactive: 0.03 | inactive: 0.006 | inactive: -0.079 | inactive: 0.009 | inactive: 0.064 | inactive: 0.004 | inactive: 0.018 | inactive: 0.054 | inactive: -0.02 | inactive: 0.003 | inactive: 0.017 | inactive: -0.031 | inactive: 0.119 | inactive: -0.011 | – | inactive: -0.043 | inactive: 0.068 | inactive: -0.006 |

Two successive records out of the list so far:

| Target | log2 fold change (erlotinib) | log2 fold change [1] | log2 fold change [2] | log2 fold change [3] | log2 fold change [4] | log2 fold change [5] | log2 fold change [6] | log2 fold change [7] | log2 fold change [8] | log2 fold change [9] | log2 fold change (ibrutinib) | log2 fold change [10] | log2 fold change (ralimetinib) | log2 fold change [11] | log2 fold change [12] | log2 fold change [13] | log2 fold change [14] | log2 fold change [15] | log2 fold change (IRAK-1-4 Inhibitor I) | log2 fold change (pinometostat) |
| --- | --- | --- | --- | --- | --- | --- | --- | --- | --- | --- | --- | --- | --- | --- | --- | --- | --- | --- | --- | --- |
| C19orf53 (UniProt Q9UNZ5) | inactive: -0.161 | inactive: -0.216 | inactive: -0.52 | inactive: 0.079 | inactive: -0.129 | inactive: -0.011 | inactive: -0.024 | inactive: -0.028 | inactive: 0.053 | inactive: -0.176 | inactive: 0.031 | inactive: 0.12 | inactive: 0.201 | inactive: 0.043 | inactive: 0.013 | inactive: 0.126 | – | inactive: -0.546 | inactive: -0.136 | inactive: 0.32 |
| C9orf72 (UniProt Q96LT7) | inactive: 0.095 | inactive: 0.021 | inactive: 0.02 | inactive: -0.012 | inactive: -0.068 | inactive: -0.068 | inactive: -0.086 | inactive: -0.057 | inactive: -0.205 | inactive: 0.211 | inactive: 0.022 | inactive: -0.001 | inactive: 0.035 | inactive: -0.051 | inactive: 0.029 | inactive: -0.019 | – | inactive: 0.048 | inactive: 0.016 | inactive: 0.135 |
